System: SCC-4 cells
Experiment: Co-localisation of compounds with organelle co-stains (fluorescence microscopy, Pearson's Coefficient)
Type: cell-based
Details: 1 hour
Experimental: SCC-4 cells were seeded at 50,000 cells per well on 8-well chamber slides and the following day were treated with 1 pM compound of interest for 1 hour before either fixation with 4% paraformaldehyde (PFA) or a media change to Live Cell Imaging solution. Co-stains (e.g. MitoTracker, Bodipy ER Tracker or LipidSpot 610) were applied for 30 minutes before imaging on a Zeiss LSCM 880.
SCC-4 cells were seeded at 50,000 cells/well on 8-well chamber slides. The following day, cells were treated with 1 μM compound 101 and 1 μM compound 93 for 1 hour. Cells were changed to live cell imaging solution media. Co-stains (MitoTracker, Bodipy ER Tracker, LipidSpot 610 or LysoTracker) were added to cells 30 minutes before imaging. Imaging was carried out using a Zeiss LSCM 880 and image analysis was performed on ImageJ.

[1] = co-stain LipidSpot 610, 1 μM compound
[2] = co-stain LysoTracker, 1 μM compound
[3] = co-stain MitoTracker, 1 μM compound

## COCCOCCOCCOC(=O)/C=C/c1ccc(C#Cc2ccc(N(C)CCCCCNC(=O)CCCCCCC(=O)NOC(C)=O)cc2)s1 [compound 101, 2-[2-(2-Methoxyethoxy)ethoxy]ethyl(2E)-3-[5-(2-{4-[(5-{7-[(acetyloxy)carbamoyl]heptanamido}pentyl)(methyl)amino]phenyl}ethynyl)thiophen-2-yl]prop-2-enoate]
[1]
  Pearson's R Value (above threshold): 0.08
  Pearson's R Value (no threshold): 0.30
[2]
  Pearson's R Value (above threshold): 0.54
  Pearson's R Value (no threshold): 0.64
[3]
  Pearson's R Value (above threshold): 0.30 +/− 0.11
  Pearson's R Value (no threshold): 0.55 +/− 0.04

— US12661405B2, “Protected HDAC (histone deacetylase) inhibitors” (LIGHTOX LIMITED, priority 2021, dated 2026)
